Test results taken from PubChem BioAssay AID2685 (National Center for Advancing Translational Sciences (NCATS), 2010).
“And” between values parts separate entries of the source, which are not always exact repeats. Equal values may be shown once. Some of the results follow. The main result of the screen is listed elsewhere. These columns were measured beside it and carry no call. The list favours compounds with an active or inconclusive main result. Words in brackets tell the shape of the fitted curve; partial curves, single points and poor fits give uncertain potencies.

Assay: qHTS Assay for Lipid Storage Modulators in Drosophila S3 Cells;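 on cell number change: cells counted by Cell Tracker Red CMTPX staining in the red channel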
Conditions: BODIPY lipid droplet fluorescence, 18-24 h; for cell number change: measured here: cell count max response, cells fed with added oleic acid
Outline: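 Drosophila S3 cells loaded with oleic acid (400 uM, as added) and compounds at several concentrations; lipid droplets imaged by 488-nm laser-scanning cytometry, 500–530 nm intensity and object ratio to cell channel. Percent activity normalized to 20 uM Triacsin C.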

[1] = measured here: cell number channel AC50, cells fed with added oleic acid
[2] = measured here: lipid fluorescence (Fed channel) AC50, cells fed with added oleic acid

## Cc1cccc(OCC(=O)Nc2nnc(S(=O)(=O)N3CCC(C)CC3)s2)c1
  cell number change: -1.16%

## N#CC(c1ccccc1F)(c1ncc(C(F)(F)F)cc1Cl)N1CCOCC1 (configuration not stated)
  cell number change: 0.862%

## Cc1cc(CNC(=O)Nc2ccc3c(c2)OCO3)nn1C
  cell number change: 15.9%
[1]
  AC50: 0.366 µM [rising, full curve]
[2]
  AC50: 0.58 µM [rising, single point]

## O=C(CCCCC(=O)Nc1ccccc1)Nc1ccccc1
  cell number change: 19.3%
[2]
  AC50: 6.51 µM [rising, single point]

## CN1C(=O)C2C=CC1C1C(=O)N(c3ccccc3)C(=O)C21 (configuration not stated)
  cell number change: -24.7%
[1]
  AC50: 0.517 µM [falling, full curve]
[2]
  AC50: 1.84 µM [falling, partial curve, poor fit]

## Nc1ccccc1OCCOCCOCCOc1ccccc1N
  cell number change: 21.8%
[1]
  AC50: 0.651 µM [falling, partial curve, poor fit]
[2]
  AC50: 6.51 µM [falling, single point]

## COC(=O)c1cccc(NC(=O)CSc2nc(=O)cc(N)n2-c2ccccc2)c1
  cell number change: 12.7%

## Cc1cccc(C(=O)NNC(=O)C2CC2)c1
  cell number change: 10.3%
[1]
  AC50: 0.082 µM [rising, full curve, poor fit]
[2]
  AC50: 0.164 µM [rising, full curve, poor fit]

## COc1ccc(Cl)cc1NC(=O)CSc1nnc(COc2ccccc2)n1C
  cell number change: -13.6%
[2]
  AC50: 1.46 µM [rising, partial curve]

## Cc1cc(C)n2nc(SCC(=O)Nc3ccc(F)cc3)nc2n1
  cell number change: -36.6%
[1]
  AC50: 7.31 µM [falling, partial curve]
[2]
  AC50: 18.4 µM [falling, single point]

## O=C(Cn1cnc2ccc(Br)cc2c1=O)c1cccs1
  cell number change: 25%

## O=S1(=O)NC2CCCCCN2c2ccc(F)cc21 (configuration not stated)
  cell number change: -4.18%
[2]
  AC50: 0.0116 µM [falling, full curve]

## COc1cc(NC(=O)c2cccc(F)c2)ccc1NC(=O)c1cc2ccccc2o1
  cell number change: -39.5%
[1]
  AC50: 25.9 µM [falling, single point]
[2]
  AC50: 9.2 µM [falling, partial curve]

## CCOC(=O)C(C)Sc1nc2c(c(=O)[nH]c(=O)n2C)n1Cc1ccc(Cl)cc1 (configuration not stated)
  cell number change: 121%
[1]
  AC50: 20.6 µM [rising, partial curve]
[2]
  AC50: 20.6 µM [rising, partial curve]

## C=CCc1cccc2cc(C(=O)OCC)c(=O)oc12
  cell number change: 9.24%
[2]
  AC50: 2.91 µM [rising, partial curve]

## COc1ccc2c(c1OC)C(=O)N1C2SC[C@H]1C(=O)NC1CCCC1 (some centres not stated)
  cell number change: 19.1%
[2]
  AC50: 29.1 µM [rising, single point]

## c1ccc2c(-c3nn4nnnc4c4ccccc34)cccc2c1
  cell number change: 63.7%
[1]
  AC50: 29.1 µM [rising, single point]

## O=C(CN1CCN(c2ccccc2)CC1)Nc1ccccc1Cl
  cell number change: -55.7%

## COc1ccccc1N1CCN(S(=O)(=O)CC23CCC(CC2=O)C3(C)C)CC1 (configuration not stated)
  cell number change: -132%
[2]
  AC50: 2.59 µM [falling, single point]

## CC(=O)CC1OC(=O)C(Br)=C1NCc1ccccc1 (configuration not stated)
  cell number change: -11.8%
[1]
  AC50: 0.00461 µM [falling, full curve, poor fit]
[2]
  AC50: 0.651 µM [falling, full curve]

## Cc1cccnc1Nc1nc(-c2ccc(O)cc2)cs1
  cell number change: 17.5%
[1]
  AC50: 0.366 µM [rising, full curve, poor fit]

## CCOC(=O)C1(CCOc2ccccc2)CCN(Cc2ccc(OCCO)cc2)CC1
  cell number change: -8.99%
[2]
  AC50: 0.00461 µM [rising, full curve, poor fit]

## CN(Cc1ccccc1)S(=O)(=O)c1ccc(Cl)c(C(=O)OCC(N)=O)c1
  cell number change: 20.9%

## COc1ccc(C(C)NC(=O)c2ccccc2Br)cc1OC (configuration not stated)
  cell number change: 4.18%

## CCC(CC)C(=O)Nc1cccc(C(=O)NCCc2ccccc2)c1
  cell number change: 27.4%
[2]
  AC50: 2.91 µM [rising, single point]

## CC1=C(C)CC(C(=O)NC(C)CCc2ccccc2)C(C(=O)O)C1 (configuration not stated)
  cell number change: 107%

## Cc1cccc(NC(=O)c2cc(S(=O)(=O)N3CCCCC3)ccc2Cl)n1
  cell number change: -36.1%
[1]
  AC50: 2.06 µM [falling, full curve, poor fit]

## O=C(CNc1ccc2c(c1)OCO2)N/N=C\c1cn(Cc2ccc(F)cc2)c2ccccc12
  cell number change: -11.2%
[2]
  AC50: 29.1 µM [falling, single point]

## CS/C(=N\S(=O)(=O)c1cccs1)NC(=O)CSc1nc2ccccc2s1
  cell number change: 13%
[1]
  AC50: 0.184 µM [rising, full curve, poor fit]

## CCc1ccc(N=CC23c4ccccc4C(c4ccccc42)C2C(=O)N(c4ccc(OC)cc4)C(=O)C23)cc1 (configuration not stated)
  cell number change: 9.2%

## CC(=O)c1ccccc1NC(=O)COC(=O)c1cc(C)oc1C
  cell number change: 4.17%
[1]
  AC50: 4.61 µM [rising, single point]
[2]
  AC50: 2.31 µM [rising, partial curve]

## CCNc1nc(C)nc2c1oc1ccccc12
  cell number change: -16.2%
[2]
  AC50: 6.51 µM [rising, partial curve]

## COc1ccc(CCc2nc(C)ccc2O)cc1
  cell number change: 15.5% and -5.02%
[2]
  AC50: 517 nM [falling, single point] and 14.6 µM [rising, partial curve, poor fit]

## CCOc1ccccc1OCCCC(=O)N1CCN(S(=O)(=O)c2cccc(F)c2)CC1
  cell number change: 8.41%
[2]
  AC50: 16.4 µM [rising, partial curve]

## C=CCNC(=O)N1CCC(n2nccc2NC(=O)CCCc2ccccc2)CC1
  cell number change: 13.5%
[2]
  AC50: 0.116 µM [rising, single point]

## N#C/C(=C/c1ccc(N2CCCCC2)o1)C(=O)Nc1ccc(Cl)cc1
[2]
  AC50: 0.58 µM [falling, single point]

## Cc1cccc(N2CCN(C(=O)N3CCOCC3)CC2)c1C
  cell number change: 19.8%
[2]
  AC50: 18.4 µM [rising, partial curve, poor fit]

## O=C(NCc1ccncc1)C1CCC(=O)N(CCc2ccc(Cl)cc2)C1 (configuration not stated)
[2]
  AC50: 7.31 µM [rising, partial curve, poor fit]

## c1ccc(C2(CN3CCNC[C@H]3Cc3cccc4ccccc34)CC2)cc1
  cell number change: -69.3%
[1]
  AC50: 18.4 µM [falling, single point]
[2]
  AC50: 18.4 µM [falling, single point]
